Experimental data: the supplement of paper PMC6411743
± gives the standard deviation of the averaged measurements. This is a selection; strong and weak results do not stand in their true shares. Small differences around the control level are noise.

The chains behind the UniProt entries cited, without tags or fusion partners. Where a name states a change or a piece, a line headed by the entry shows the natural chain unless it says otherwise.
UniProt O60880: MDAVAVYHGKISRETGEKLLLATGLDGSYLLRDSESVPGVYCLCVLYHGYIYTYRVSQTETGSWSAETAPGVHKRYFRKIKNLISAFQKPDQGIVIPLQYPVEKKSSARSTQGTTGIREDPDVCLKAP
UniProt O95347, whole entry: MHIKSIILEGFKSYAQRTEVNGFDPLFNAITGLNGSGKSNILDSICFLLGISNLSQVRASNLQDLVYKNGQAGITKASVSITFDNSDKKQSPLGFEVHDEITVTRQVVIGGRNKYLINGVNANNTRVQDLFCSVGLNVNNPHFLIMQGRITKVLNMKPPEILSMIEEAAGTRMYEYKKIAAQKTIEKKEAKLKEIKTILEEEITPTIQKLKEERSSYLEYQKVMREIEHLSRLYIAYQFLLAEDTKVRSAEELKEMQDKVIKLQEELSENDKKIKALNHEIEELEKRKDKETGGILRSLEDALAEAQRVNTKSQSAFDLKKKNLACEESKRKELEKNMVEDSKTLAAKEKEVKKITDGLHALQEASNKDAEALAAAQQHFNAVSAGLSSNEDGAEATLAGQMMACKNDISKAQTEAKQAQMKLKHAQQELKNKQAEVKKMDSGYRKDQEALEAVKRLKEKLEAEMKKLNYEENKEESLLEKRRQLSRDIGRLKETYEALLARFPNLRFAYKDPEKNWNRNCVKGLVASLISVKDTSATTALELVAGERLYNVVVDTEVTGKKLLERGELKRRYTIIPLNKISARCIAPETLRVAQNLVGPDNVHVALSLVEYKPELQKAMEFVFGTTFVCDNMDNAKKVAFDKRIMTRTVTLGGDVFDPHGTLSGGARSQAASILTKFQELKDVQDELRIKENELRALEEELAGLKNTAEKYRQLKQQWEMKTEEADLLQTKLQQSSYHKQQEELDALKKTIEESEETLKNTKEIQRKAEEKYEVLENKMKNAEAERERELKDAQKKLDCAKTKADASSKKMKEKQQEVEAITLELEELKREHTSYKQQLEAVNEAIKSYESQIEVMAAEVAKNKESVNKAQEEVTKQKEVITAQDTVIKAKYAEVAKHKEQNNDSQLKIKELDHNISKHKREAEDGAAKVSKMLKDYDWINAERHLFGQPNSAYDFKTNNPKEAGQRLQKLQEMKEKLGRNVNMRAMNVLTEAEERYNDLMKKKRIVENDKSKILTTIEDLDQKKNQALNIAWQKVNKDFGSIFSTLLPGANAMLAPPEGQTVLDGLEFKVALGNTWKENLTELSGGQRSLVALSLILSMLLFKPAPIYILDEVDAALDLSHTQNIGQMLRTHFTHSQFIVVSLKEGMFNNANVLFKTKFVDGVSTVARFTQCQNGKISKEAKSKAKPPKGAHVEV
UniProt O75340: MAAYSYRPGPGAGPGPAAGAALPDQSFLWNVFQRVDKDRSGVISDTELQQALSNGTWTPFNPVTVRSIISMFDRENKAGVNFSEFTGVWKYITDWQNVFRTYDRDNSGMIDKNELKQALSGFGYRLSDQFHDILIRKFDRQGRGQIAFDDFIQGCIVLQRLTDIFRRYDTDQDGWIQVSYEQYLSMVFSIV
UniProt O75348, whole entry: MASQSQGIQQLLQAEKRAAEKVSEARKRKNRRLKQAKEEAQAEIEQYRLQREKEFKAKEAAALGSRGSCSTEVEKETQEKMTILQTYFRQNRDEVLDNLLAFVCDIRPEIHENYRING
UniProt O75909: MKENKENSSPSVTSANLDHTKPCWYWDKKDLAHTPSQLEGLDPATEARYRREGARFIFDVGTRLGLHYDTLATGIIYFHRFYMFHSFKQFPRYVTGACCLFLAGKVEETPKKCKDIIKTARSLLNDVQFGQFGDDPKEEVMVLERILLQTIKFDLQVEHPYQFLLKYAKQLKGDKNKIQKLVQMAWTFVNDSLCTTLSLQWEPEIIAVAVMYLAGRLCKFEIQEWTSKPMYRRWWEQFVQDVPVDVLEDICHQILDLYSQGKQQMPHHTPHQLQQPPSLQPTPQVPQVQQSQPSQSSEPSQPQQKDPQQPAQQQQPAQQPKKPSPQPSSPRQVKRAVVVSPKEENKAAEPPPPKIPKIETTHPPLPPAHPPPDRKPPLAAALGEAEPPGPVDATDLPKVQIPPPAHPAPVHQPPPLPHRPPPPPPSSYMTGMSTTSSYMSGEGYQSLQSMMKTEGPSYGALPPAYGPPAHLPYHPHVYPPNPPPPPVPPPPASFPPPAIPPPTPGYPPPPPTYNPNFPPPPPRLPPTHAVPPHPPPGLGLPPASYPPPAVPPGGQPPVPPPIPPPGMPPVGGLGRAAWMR
UniProt O94826, whole entry: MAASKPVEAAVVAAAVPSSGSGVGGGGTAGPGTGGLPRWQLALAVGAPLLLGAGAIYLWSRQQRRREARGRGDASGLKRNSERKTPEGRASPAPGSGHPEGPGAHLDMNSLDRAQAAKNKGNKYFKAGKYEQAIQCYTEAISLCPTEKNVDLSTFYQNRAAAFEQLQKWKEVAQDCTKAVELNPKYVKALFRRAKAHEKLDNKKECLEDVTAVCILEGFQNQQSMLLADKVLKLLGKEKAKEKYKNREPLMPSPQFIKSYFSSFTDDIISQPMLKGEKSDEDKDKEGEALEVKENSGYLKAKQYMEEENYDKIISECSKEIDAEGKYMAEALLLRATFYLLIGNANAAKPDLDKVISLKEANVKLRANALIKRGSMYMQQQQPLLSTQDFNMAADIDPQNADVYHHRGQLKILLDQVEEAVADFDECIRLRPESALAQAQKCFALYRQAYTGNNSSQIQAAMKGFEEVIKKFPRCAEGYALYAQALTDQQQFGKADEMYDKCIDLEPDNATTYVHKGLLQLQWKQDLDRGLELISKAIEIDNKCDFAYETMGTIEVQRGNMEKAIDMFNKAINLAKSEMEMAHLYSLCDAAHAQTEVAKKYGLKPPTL
UniProt O75351, whole entry: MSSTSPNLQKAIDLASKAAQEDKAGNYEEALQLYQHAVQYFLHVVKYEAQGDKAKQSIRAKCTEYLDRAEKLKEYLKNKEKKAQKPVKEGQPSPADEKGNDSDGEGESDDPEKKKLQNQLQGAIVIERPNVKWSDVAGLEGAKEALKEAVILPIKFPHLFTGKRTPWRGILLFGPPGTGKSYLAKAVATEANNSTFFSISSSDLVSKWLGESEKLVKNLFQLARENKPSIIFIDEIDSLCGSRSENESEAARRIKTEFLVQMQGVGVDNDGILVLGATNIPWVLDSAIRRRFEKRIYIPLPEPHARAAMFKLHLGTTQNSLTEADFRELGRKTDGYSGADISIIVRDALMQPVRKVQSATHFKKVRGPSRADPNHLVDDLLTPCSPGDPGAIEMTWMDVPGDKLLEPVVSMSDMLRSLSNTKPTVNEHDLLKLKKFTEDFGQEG
UniProt O95394: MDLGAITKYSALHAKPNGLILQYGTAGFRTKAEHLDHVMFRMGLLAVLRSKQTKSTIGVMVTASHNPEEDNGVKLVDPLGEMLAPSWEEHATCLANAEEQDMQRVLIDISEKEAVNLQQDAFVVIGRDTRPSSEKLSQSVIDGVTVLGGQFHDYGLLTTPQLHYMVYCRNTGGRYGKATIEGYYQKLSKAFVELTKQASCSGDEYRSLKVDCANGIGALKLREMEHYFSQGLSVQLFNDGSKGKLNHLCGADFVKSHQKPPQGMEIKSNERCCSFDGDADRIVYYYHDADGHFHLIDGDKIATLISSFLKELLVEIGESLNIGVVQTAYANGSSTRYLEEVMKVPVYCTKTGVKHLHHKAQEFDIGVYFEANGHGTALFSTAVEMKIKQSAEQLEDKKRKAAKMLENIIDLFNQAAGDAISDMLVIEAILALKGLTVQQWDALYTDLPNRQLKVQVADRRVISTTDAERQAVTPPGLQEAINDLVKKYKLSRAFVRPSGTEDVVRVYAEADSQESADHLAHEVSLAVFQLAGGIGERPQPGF
UniProt O76094: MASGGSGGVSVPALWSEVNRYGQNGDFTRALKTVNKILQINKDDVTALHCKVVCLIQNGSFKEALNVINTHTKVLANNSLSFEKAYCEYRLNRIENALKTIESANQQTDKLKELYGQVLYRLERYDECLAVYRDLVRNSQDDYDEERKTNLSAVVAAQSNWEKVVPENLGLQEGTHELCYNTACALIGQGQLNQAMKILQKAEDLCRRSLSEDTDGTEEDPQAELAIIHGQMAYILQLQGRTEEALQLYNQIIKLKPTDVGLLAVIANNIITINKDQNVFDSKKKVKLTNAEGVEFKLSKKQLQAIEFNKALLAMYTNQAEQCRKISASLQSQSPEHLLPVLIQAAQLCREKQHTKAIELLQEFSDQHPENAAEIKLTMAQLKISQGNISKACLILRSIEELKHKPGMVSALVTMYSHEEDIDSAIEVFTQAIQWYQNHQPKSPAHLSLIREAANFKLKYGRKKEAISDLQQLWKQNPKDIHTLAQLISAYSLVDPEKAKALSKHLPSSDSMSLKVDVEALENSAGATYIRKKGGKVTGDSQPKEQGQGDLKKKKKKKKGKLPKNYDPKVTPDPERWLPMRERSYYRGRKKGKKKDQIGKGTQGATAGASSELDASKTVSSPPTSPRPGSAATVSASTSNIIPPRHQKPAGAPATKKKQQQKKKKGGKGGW
UniProt O75489, whole entry: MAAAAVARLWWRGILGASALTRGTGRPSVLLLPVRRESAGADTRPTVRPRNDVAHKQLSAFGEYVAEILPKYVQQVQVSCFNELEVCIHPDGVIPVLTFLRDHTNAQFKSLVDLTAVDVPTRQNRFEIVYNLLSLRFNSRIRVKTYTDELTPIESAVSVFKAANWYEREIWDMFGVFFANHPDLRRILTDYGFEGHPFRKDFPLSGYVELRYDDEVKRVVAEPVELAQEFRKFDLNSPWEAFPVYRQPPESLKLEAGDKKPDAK
UniProt O94830: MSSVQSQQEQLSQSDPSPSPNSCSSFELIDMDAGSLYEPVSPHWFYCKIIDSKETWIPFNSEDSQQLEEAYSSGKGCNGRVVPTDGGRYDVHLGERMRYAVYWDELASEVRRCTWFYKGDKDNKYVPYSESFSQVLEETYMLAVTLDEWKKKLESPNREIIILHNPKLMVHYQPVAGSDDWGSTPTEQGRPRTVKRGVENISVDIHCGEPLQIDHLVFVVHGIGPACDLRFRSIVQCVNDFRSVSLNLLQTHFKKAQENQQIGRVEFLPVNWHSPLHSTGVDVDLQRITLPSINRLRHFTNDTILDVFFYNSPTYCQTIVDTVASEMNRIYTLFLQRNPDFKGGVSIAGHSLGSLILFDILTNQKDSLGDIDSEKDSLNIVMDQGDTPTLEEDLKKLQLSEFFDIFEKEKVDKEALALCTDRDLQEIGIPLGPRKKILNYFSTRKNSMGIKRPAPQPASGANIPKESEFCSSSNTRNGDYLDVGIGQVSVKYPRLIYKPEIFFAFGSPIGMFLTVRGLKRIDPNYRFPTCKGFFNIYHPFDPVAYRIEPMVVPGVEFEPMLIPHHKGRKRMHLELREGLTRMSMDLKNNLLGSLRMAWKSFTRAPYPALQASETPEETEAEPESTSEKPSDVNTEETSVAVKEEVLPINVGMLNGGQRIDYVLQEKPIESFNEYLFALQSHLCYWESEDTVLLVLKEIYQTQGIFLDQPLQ
UniProt O60828: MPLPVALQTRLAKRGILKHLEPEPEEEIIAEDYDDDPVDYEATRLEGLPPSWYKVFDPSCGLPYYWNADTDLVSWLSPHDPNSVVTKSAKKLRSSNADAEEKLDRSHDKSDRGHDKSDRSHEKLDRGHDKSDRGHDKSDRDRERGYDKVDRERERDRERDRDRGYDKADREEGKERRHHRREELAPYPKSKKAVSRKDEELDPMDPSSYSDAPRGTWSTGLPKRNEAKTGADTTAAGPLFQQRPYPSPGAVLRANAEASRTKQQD
UniProt O76071: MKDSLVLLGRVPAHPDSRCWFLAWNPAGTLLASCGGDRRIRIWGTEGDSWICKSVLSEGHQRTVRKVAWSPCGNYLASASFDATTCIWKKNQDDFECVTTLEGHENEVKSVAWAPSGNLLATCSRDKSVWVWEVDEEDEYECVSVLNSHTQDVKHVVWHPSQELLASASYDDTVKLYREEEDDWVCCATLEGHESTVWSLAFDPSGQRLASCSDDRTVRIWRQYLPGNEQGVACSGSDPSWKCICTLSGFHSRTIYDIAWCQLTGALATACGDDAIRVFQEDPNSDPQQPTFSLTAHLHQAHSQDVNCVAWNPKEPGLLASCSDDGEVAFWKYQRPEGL
UniProt O94900: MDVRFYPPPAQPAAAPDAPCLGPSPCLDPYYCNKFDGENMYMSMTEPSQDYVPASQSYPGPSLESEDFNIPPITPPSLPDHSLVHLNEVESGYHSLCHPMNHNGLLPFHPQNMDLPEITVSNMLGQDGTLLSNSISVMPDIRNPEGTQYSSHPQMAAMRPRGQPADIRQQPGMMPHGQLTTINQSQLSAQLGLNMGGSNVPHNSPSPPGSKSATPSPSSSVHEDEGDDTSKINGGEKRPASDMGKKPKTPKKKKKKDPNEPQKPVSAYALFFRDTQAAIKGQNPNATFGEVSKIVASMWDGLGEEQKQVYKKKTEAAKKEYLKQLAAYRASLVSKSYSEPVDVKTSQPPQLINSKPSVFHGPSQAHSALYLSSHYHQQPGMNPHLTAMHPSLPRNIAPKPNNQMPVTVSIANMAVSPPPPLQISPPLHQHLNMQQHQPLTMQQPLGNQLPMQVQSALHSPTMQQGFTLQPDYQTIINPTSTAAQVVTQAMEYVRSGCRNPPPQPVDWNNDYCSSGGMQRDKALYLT

Compound: Nc1ncnc2c1ncn2[C@@H]1O[C@H](COP(=O)(O)OP(=O)(O)NP(=O)(O)O)[C@@H](O)[C@H]1O [adenylyl imidodiphosphate]
Assay: NP40-soluble protein abundance relative to vehicle (solubility fold change) (ratio); higher = more soluble protein in presence of AMP-PNP
Summary of the method: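 Eight concentrations, 0.1 to 10 mM, were tested on Jurkat crude lysate for 10 min at room temperature and then 3 min at 37 °C, in three independent experiments. The lysate was solubilised with 0.8% NP40 and benzonase, ultracentrifuged, and the supernatant TMT-labelled for LC-MS/MS. Each value is the fold change against the detergent-processed vehicle in its own replicate, from vsn-normalised intensities.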

Target	NP40-soluble protein abundance (concentration: 0.1mM)	NP40-soluble protein abundance (concentration: 0.5mM)
UniProt O60880 and related entries	0.893 ± 0.12	0.84 ± 0.046
IDH1 (UniProt O75874)	0.981 ± 0.021	0.968 ± 0.036
SMC2 (UniProt O95347)	0.986 ± 0.015	0.995 ± 0.027
STAM2 (UniProt O75886)	0.972 ± 0.01	1.01 ± 0.051
UniProt O75367 and related entries	0.981 ± 0.01	0.969 ± 0.042
UniProt O75170-3|O75170-4|O75170-5|O75170 and related entries	0.9933 ± 0.0078	0.995 ± 0.0073
GMFG (UniProt O60234)	1.01 ± 0.044	1.03 ± 0.036
PDCD6 (UniProt O75340)	1.07 ± 0.049	1.04 ± 0.056
UniProt O75312	0.982 ± 0.01	0.973 ± 0.035
UniProt O94768	1.08 ± 0.0088	1.08 ± 0.035
UniProt O94973 and related entries	1.04 ± 0.018	1.04 ± 0.032
PFDN1 (UniProt O60925)	0.9933 ± 0.0021	1.02 ± 0.046
UniProt O94966-6|O94966-7	0.987 ± 0.018	0.96 ± 0.043
ATP6V1G1 (UniProt O75348)	0.98 ± 0.04	0.958 ± 0.035
ARL6IP5 (UniProt O75915)	0.971 ± 0.028	0.997 ± 0.0061
DKC1 (UniProt O60832)	1.01 ± 0.033	1.03 ± 0.014
UniProt O75909 and related entries	1.02 ± 0.012	1.02 ± 0.023
UniProt O75145 and related entries	0.989 ± 0.061	0.989 ± 0.045
SH3BGRL (UniProt O75368)	0.925 ± 0.011	0.994 ± 0.04
UniProt O75865 and related entries	1.04 ± 0.014	1.04 ± 0.045

5 entries from above, as comma-separated lines.
Target,NP40-soluble protein abundance (concentration: 0.1mM),NP40-soluble protein abundance (concentration: 0.5mM)
SMC2 (UniProt O95347),0.986 ± 0.015,0.995 ± 0.027
GMFG (UniProt O60234),1.01 ± 0.044,1.03 ± 0.036
ATP6V1G1 (UniProt O75348),0.98 ± 0.04,0.958 ± 0.035
DKC1 (UniProt O60832),1.01 ± 0.033,1.03 ± 0.014
UniProt O75145 and related entries,0.989 ± 0.061,0.989 ± 0.045

More results follow.

Target	NP40-soluble protein abundance (concentration: 0.1mM)	NP40-soluble protein abundance (concentration: 0.5mM)
CAND2 (UniProt O75155)	1.02 ± 0.016	1.02 ± 0.028
UniProt O60861 and related entries	1.02 ± 0.019	1.02 ± 0.039
CLPX (UniProt O76031)	0.977 ± 0.041	0.969 ± 0.042
UniProt O75396	0.993 ± 0.028	0.984 ± 0.017
UniProt O95613 and related entries	0.956 ± 0.039	0.924 ± 0.051
COQ9 (UniProt O75208)	0.96 ± 0.057	0.986 ± 0.07
NDUFS5 (UniProt O43920)	1.01 ± 0.029	1.05 ± 0.1
LYPLA2 (UniProt O95372)	1.02 ± 0.041	1 ± 0.025
SNAPIN (UniProt O95295)	0.989 ± 0.019	0.998 ± 0.05
PSMG1 (UniProt O95456)	1.03 ± 0.011	1.02 ± 0.028
RANBP6 (UniProt O60518)	0.97 ± 0.012	0.982 ± 0.018
UniProt O60333-3|O60333 and related entries	0.996 ± 0.033	0.9765 ± 0.0086
UniProt O75528 and related entries	1 ± 0.015	1.01 ± 0.034
UniProt O94826	0.978 ± 0.033	0.992 ± 0.034
SNRNP200 (UniProt O75643)	1.05 ± 0.055	1.02 ± 0.13
UniProt O75964	1.01 ± 0.061	1.09 ± 0.1
UniProt O75306 and related entries	0.993 ± 0.026	1 ± 0.019
DHX16 (UniProt O60231)	1.013 ± 0.0071	1.011 ± 0.0049
UniProt O95218-2	0.983 ± 0.022	1.04 ± 0.072
WDR1 (UniProt O75083)	1 ± 0.024	0.997 ± 0.046

Target	NP40-soluble protein abundance (concentration: 0.1mM)	NP40-soluble protein abundance (concentration: 0.5mM)
MFN2 (UniProt O95140)	1.02 ± 0.045	0.991 ± 0.063
VPS4B (UniProt O75351)	0.992 ± 0.0079	1.03 ± 0.043
UniProt O95394 and related entries	1.01 ± 0.046	0.984 ± 0.044
RP2 (UniProt O75695)	0.994 ± 0.042	0.962 ± 0.036
UniProt O75475 and related entries	0.965 ± 0.034	1.03 ± 0.035
UniProt O75037 and related entries	1.03 ± 0.042	0.999 ± 0.025
UniProt O95219 and related entries	0.996 ± 0.017	1.02 ± 0.027
SRP72 (UniProt O76094)	0.982 ± 0.024	1.02 ± 0.04
UniProt O75164	0.977 ± 0.027	0.956 ± 0.037
BRD4 (UniProt O60885)	0.979 ± 0.027	0.999 ± 0.05
NDUFS3 (UniProt O75489)	1.03 ± 0.035	1.01 ± 0.046
DDHD2 (UniProt O94830)	0.996 ± 0.069	0.96 ± 0.059
UniProt O60711 and related entries	0.9862 ± 0.0066	1 ± 0.048
PALM (UniProt O75781)	0.974 ± 0.016	0.943 ± 0.025
UniProt O95619 and related entries	1.01 ± 0.052	1.03 ± 0.063
UniProt O60828 and related entries	0.988 ± 0.035	1.08 ± 0.05
CIAO1 (UniProt O76071)	1.02 ± 0.026	1.01 ± 0.083
NPM3 (UniProt O75607)	0.994 ± 0.019	0.991 ± 0.041
UniProt O94864 and related entries	0.96529 ± 0.00021	1.01 ± 0.055
TOX (UniProt O94900)	0.946 ± 0.025	0.988 ± 0.068
